Some results were stated once for a whole list of compounds, not compound by compound.
Key:
Type in all cases: in vivo
Phakopsora pachyrhizi = Phakopsora pachyrhizi / soybean / leaf disk preventative (soybean rust); settings: 200 ppm, soybean leaf disks, inoculated one day after application, compared to untreated control leaf disks
[1] = tested on: Blumeria graminis f. Sp. Tritici (Erysiphe graminis f. Sp. Tritici); assay: Blumeria graminis f. sp. tritici / wheat / leaf disc preventative (powdery mildew on wheat); settings: 200 ppm, wheat leaf segments cv. Kanzler, inoculated 1 day after application, compared to untreated control leaf disks
[2] = tested on: Puccinia recondita f. Sp. Tritici; assay: Puccinia recondita f. sp. tritici / wheat / leaf disc curative (brown rust); settings: 200 ppm, wheat leaf segments cv. Kanzler, compound applied 1 day after inoculation, compared to untreated control leaf disks
[3] = tested on: Puccinia recondita f. Sp. Tritici; assay: Puccinia recondita f. sp. tritici / wheat / leaf disc preventative (brown rust); settings: 200 ppm, wheat leaf segments cv. Kanzler, inoculated 1 day after application, compared to untreated control leaf disks

Measured: disease control

CCN(C)/C=N/c1cc(OC)c(C2(C(F)(F)F)CCO2)cc1C (centres unmarked) [Compound 1.21, N-ethyl-N′-[5-methoxy-2-methyl-4-[2-(trifluoromethyl)oxetan-2-yl]phenyl]-N-methyl-formamidine]
at least 80%: all assays above

CCN(C)/C=N/c1cc(OC)c(C2(C(F)(F)F)CCCO2)cc1C (centres unmarked) [Compound 1.22, N-ethyl-N′-[5-methoxy-2-methyl-4-[2-(trifluoromethyl)tetrahydrofuran-2-yl]phenyl]-N-methyl-formamidine]
at least 80%: all assays above

— patent publication US10934265B2, “Microbiocidal phenylamidine derivatives” (SYNGENTA PARTICIPATIONS AG, priority 2017, dated 2021)
